Test results taken from PubChem BioAssay AID330 (DTP/NCI, 2004).
The list shows only some results of the screen, not a fair sample: it gathers tests that were run many times, whatever their T/C, doses with no T/C, and many T/C values between a quarter and a half above the control. Further doses and runs are listed elsewhere. T/C: endpoint of the treated group in % of that of the vehicle group. Some entries give survivors of the animals treated and no T/C: the source files T/C as zero there, which appears to mark a toxic dose or a test without result, not a measured value. Some survivor counts are full or nearly so, which does not show that the dose was tolerated: survival well below the control is almost never listed, so the zero probably covers shortened survival too. Survivors were counted at the toxicity check, usually on the fifth day, unless a day is given; later deaths do not show. Schedules are NCI's codes, read here as Q, the interval in days (D) or hours (H), X, the number of doses. Some entries hold several experiments; the values are given in rising order. For survival time, this PubChem deposit counts one and a half times the control or more as active, and values a quarter to a half above the control carry no call in these data; other NCI protocols may use other cut-offs. Some T/C values carry the count of animals alive at the toxicity check (mostly the fifth day); without a count, all were alive then. Signs of the kind (2×) count equal records among those shown.

Tested on: P388 leukemia ip, CD2F1 mice, survival T/C
Assay: NCI In Vivo Anticancer Drug Screen. Data for tumor model P388 Leukemia (intraperitoneal) in CD2F1 (CDF1) mice
Conditions: T/C endpoint: median survival time, higher T/C = longer survival
[1] = dose: 25.0 mg/kg/injection, schedule: Q01DX009 (ip), vehicle: Klucel (hydroxypropylcellulose) (HPC)

O=P1(N(CCCl)CCCl)NCCCO1 (stereo not drawn)
T/C (dose: 6.25 mg/kg/injection, schedule: Q01DX005 (ip), vehicle: saline, evaluated on day 30): 115, 126 [5 of 6 alive], 129, 148, 150 % of control | T/C (dose: 6.25 mg/kg/injection, schedule: Q01DX005 (ip), vehicle: saline, evaluated on day 45): 124 and 133 % of control | T/C (dose: 6.25 mg/kg/injection, schedule: Q01DX009 (ip), vehicle: saline): 136 % of control | T/C (dose: 8.0 mg/kg/injection, schedule: Q01DX009 (ip), vehicle: saline): 137 % of control | T/C (dose: 10.0 mg/kg/injection, schedule: Q04DX003 (ip), vehicle: saline): 126 % of control | T/C (dose: 12.5 mg/kg/injection, schedule: Q01DX005 (ip), vehicle: saline, evaluated on day 30): 144, 148, 154 (2×), 165, 168, 203 % of control | T/C (dose: 12.5 mg/kg/injection, schedule: Q01DX005 (ip), vehicle: saline, evaluated on day 45): 146 and 154 % of control | T/C (dose: 12.5 mg/kg/injection, schedule: Q01DX009 (ip), vehicle: water): 148 % of control | T/C (dose: 12.5 mg/kg/injection, schedule: Q04DX003 (ip), vehicle: saline, evaluated on day 30): 149 % of control | T/C (dose: 12.5 mg/kg/injection, schedule: Q04DX003 (ip), vehicle: saline, evaluated on day 45): 125 and 137 % of control | T/C (dose: 12.5 mg/kg/injection, schedule: Q04DX003 (ip), vehicle: saline, evaluated on day 50): 162 % of control | T/C (dose: 17.3 mg/kg/injection, schedule: Q01DX005 (ip), vehicle: saline): 137 % of control | T/C (dose: 20.0 mg/kg/injection, schedule: Q04DX003 (ip), vehicle: saline, evaluated on day 35): 145 % of control | T/C (dose: 20.0 mg/kg/injection, schedule: Q04DX003 (ip), vehicle: saline, evaluated on day 45): 146 % of control | T/C (dose: 25.0 mg/kg/injection, schedule: Q01DX005 (ip), vehicle: Klucel (hydroxypropylcellulose) (HPC), evaluated on day 30): 109, 118, 122, 126, 172, 181 (2×), 193, 196, 200 (2×), 203, 206, 208, 210 (2×), 212, 214, 215, 216, 216 [2 of 2 alive], 217, 218, 225, 228 (2×), 230 [2 of 3 alive], 233, 238, 240, 242, 243, 250, 269 % of control | T/C (dose: 25.0 mg/kg/injection, schedule: Q01DX005 (ip), vehicle: Klucel (hydroxypropylcellulose) (HPC), evaluated on day 35): 333 % of control | T/C (dose: 25.0 mg/kg/injection, schedule: Q01DX005 (ip), vehicle: saline, evaluated on day 30): 195, 201, 202, 212, 216, 220, 225, 262 % of control | T/C (dose: 25.0 mg/kg/injection, schedule: Q01DX005 (ip), vehicle: saline, evaluated on day 45): 190 and 206 % of control [7 of 8 alive] | T/C [1]: 116, 126, 135, 142, 149, 183, 192 (2×), 200, 205, 206, 212, 219, 223, 224, 228 (2×), 230, 233, 237, 245, 258, 265, 268, 270, 271, 276, 277, 285, 287, 291, 296, 329 % of control (2×) | survivor count [1]: 6 of 6 | T/C (dose: 25.0 mg/kg/injection, schedule: Q01DX009 (ip), vehicle: saline): 167, 234, 291, 300 % of control | T/C (dose: 25.0 mg/kg/injection, schedule: Q01DX009 (ip), vehicle: water): 132 % of control | T/C (dose: 25.0 mg/kg/injection, schedule: Q04DX003 (ip), vehicle: saline, evaluated on day 30): 160 % of control | T/C (dose: 25.0 mg/kg/injection, schedule: Q04DX003 (ip), vehicle: saline, evaluated on day 45): 170 and 179 % of control | T/C (dose: 25.0 mg/kg/injection, schedule: Q04DX003 (ip), vehicle: saline, evaluated on day 50): 169 % of control | T/C (dose: 25.0 mg/kg/injection, schedule: Q04DX003 (ip), vehicle: water): 137 % of control | T/C (dose: 28.8 mg/kg/injection, schedule: Q01DX009 (ip), vehicle: saline): 130 % of control | T/C (dose: 32.0 mg/kg/injection, schedule: Q01DX009 (ip), vehicle: saline, evaluated on day 5): 138 % of control | T/C (dose: 32.0 mg/kg/injection, schedule: Q01DX009 (ip), vehicle: saline, evaluated on day 45): 133 % of control | T/C (dose: 37.5 mg/kg/injection, schedule: Q01DX001 (ip), vehicle: saline): 119, 124, 134, 167 % of control | T/C (dose: 40.0 mg/kg/injection, schedule: Q01DX005 (ip), vehicle: saline, evaluated on day 30): 89, 164, 214, 220, 221, 228, 235, 237 (3×), 238, 240, 250, 250 [4 of 6 alive], 254, 265 (2×), 267, 270, 283, 294 (2×), 300 (3×), 309 % of control | T/C (dose: 40.0 mg/kg/injection, schedule: Q01DX005 (ip), vehicle: saline, evaluated on day 35): 350 % of control | T/C (dose: 40.0 mg/kg/injection, schedule: Q01DX005 (ip), vehicle: saline, evaluated on day 60): 235 and 440 % of control | survivor count (dose: 40.0 mg/kg/injection, schedule: Q01DX005 (ip), vehicle: saline): 6 of 6 | T/C (dose: 40.0 mg/kg/injection, schedule: Q01DX009 (ip), vehicle: saline, evaluated on day 30): 92, 109, 169, 225, 250, 260, 264, 265 (3×), 267, 270 (3×), 275, 276, 277, 285, 294 (2×), 297 (2×), 300 (3×), 300 [4 of 6 alive], 309 % of control | T/C (dose: 40.0 mg/kg/injection, schedule: Q01DX009 (ip), vehicle: saline, evaluated on day 35): 350 % of control | T/C (dose: 40.0 mg/kg/injection, schedule: Q01DX009 (ip), vehicle: saline, evaluated on day 60): 359 and 550 % of control | survivor count (dose: 40.0 mg/kg/injection, schedule: Q01DX009 (ip), vehicle: saline): 6 of 6 | T/C (dose: 50.0 mg/kg/injection, schedule: Q01DX001 (ip), vehicle: Klucel (hydroxypropylcellulose) (HPC), evaluated on day 30): 101, 149, 151, 152, 156, 157 [2 of 3 alive], 163 (3×), 166 (2×), 179 (3×), 180, 181, 184 (2×), 189, 190 (3×), 194, 204, 205, 208, 212, 219, 240 % of control | T/C (dose: 50.0 mg/kg/injection, schedule: Q01DX001 (ip), vehicle: Klucel (hydroxypropylcellulose) (HPC), evaluated on day 35): 175 % of control | survivor count (dose: 50.0 mg/kg/injection, schedule: Q01DX001 (ip), vehicle: Klucel (hydroxypropylcellulose) (HPC)): 3 of 3 and 6 of 6 | T/C (dose: 50.0 mg/kg/injection, schedule: Q01DX001 (ip), vehicle: saline, evaluated on day 5): 111, 116, 135, 154 % of control | T/C (dose: 50.0 mg/kg/injection, schedule: Q01DX001 (ip), vehicle: saline, evaluated on day 9): 99, 118, 123 % of control
